These are yes or no findings as the source states them, for the method shown. Some binding calls cover weakened binding; strength is not graded here.
Molecular target: TWEAK (human) (UniProt O43508)
Test: SPR Biacore

Sequences of proteins named here, by UniProt entry; tags and fusion partners are left off. Residues count along the entry.
UniProt O43508, residues 94-249: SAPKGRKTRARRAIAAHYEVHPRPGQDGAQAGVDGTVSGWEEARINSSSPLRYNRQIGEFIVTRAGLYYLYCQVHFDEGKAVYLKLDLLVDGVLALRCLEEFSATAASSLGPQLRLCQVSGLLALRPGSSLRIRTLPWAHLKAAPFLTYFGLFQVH

B1: TweakIL17_102 (bispecific antibody, human IgG4 S228P, kappa)
heavy 1: DIQMTQSPSSVSASVGDRVTITCQASQNIYSNLAWYQQKPGKAPKLLIYTASYLASGVPSRFSGSGSGTDYTLTISSLQPEDFATYYCQTAYYNSRPDTVAFGGGTKVEIKRTVAAPSVFIFPPSDEQLKSGTASVVCLLNNFYPREAKVQWKVDNALQSGNSQESVTEQDSKDSTYSLSSTLTLSKADYEKHKVYACEVTHQGLSSPVTKSFNRGECPPCPPCPAPEFEGGPSVFLFPPKPKDTLMISRTPEVTCVVVDVSQEDPEVQFNWYVDGVEVHNAKTKPREEQFNSTYRVVSVLTVLHQDWLNGKEYKCKVSNKGLPSSIEKTISKAKGQPREPQVYTLPPCQEEMTKNQVSLWCLVKGFYPSDIAVEWESNGQPENNYKTTPPVLDSDGSFFLYSRLTVDKSRWQEGNVFSCSVMHEALHNHYTQKSLSLSL
light 1: QVQLVQSGAEVKKPGSSVKVSCKASGFDFSTYYMSWVRQAPGQGLEWMGTVYVRQGTTYYASWLNGRVTITADESTSTAYMELSSLRSEDTAVYYCARGGYNYDDAFVIWGQGTLVTVSSASTKGPSVFPLAPCSRSTSESTAALGCLVKDYFPEPVTVSWNSGALTSGVHTFPAVLQSSGLYSLSSVVTVPSSSLGTKTYTCNVDHKPSNTKVDKRVESKYG
heavy 2: EVQLVESGGGLVQPGGSLRLSCAASGFSLDSYGVHWVRQATGKGLEWVSVIWSDGTTTYNSALKSRFTISRENAKNSLYLQMNSLRAGDTAVYYCARDTHYRLYYYAMDYWGQGTTVTVSSASTKGPSVFPLAPCSRSTSESTAALGCLVEDYFPEPVTVSWNSGALTSGVHTFPAVLQSSGLYSLSSVVTVPSSSLGTKTYTCNVDHKPSNTKVDERVESKYGPPCPPCPAPEFEGGPSVFLFPPKPKDTLMISRTPEVTCVVVDVSQEDPEVQFNWYVDGVEVHNAKTKPREEQFNSTYRVVSVLTVLHQDWLNGKEYKCKVSNKGLPSSIEKTISKAKGQPREPQVCTLPPSQEEMTKNQVSLSCAVKGFYPSDIAVEWESNGQPENNYKTTPPVLDSDGSFFLVSRLTVDKSRWQEGNVFSCSVMHEALHNHYTQKSLSLSL
light 2: DIVMTQSPLSLPVTPGEPASISCRSSQSLVHSNGDTYFHWYLQKPGQSPQLLIYKVSNRFSGVPDRFSGSGSGTDFTLKISRVEAEDVGVYYCSQTTHAPFTFGQGTKLEIKRTVAAPSVFIFPPSDKKLKSGTASVVCLLNNFYPREAKVQWKVDNALQSGNSQESVTEQDSKDSTYSLSSTLTLSKADYEKHKVYACEVTHQGLSSPVTKSFNRGEC
binding: binds

B2: TweakIL17_103 (bispecific antibody, human IgG4 S228P, kappa)
heavy 1: DIQMTQSPSSVSASVGDRVTITCQASQNIYSNLAWYQQKPGKAPKLLIYTASYLASGVPSRFSGSGSGTDYTLTISSLQPEDFATYYCQTAYYNSRPDTVAFGGGTKVEIKRTVAAPSVFIFPPSDEELKSGTASVVCLLNNFYPREAKVQWKVDNALQSGNSQESVTEQDSKDSTYSLSSTLTLSKADYEKHKVYACEVTHQGLSSPVTKSFNRGECPPCPPCPAPEFEGGPSVFLFPPKPKDTLMISRTPEVTCVVVDVSQEDPEVQFNWYVDGVEVHNAKTKPREEQFNSTYRVVSVLTVLHQDWLNGKEYKCKVSNKGLPSSIEKTISKAKGQPREPQVYTLPPCQEEMTKNQVSLWCLVKGFYPSDIAVEWESNGQPENNYKTTPPVLDSDGSFFLYSRLTVDKSRWQEGNVFSCSVMHEALHNHYTQKSLSLSL
light 1: QVQLVQSGAEVKKPGSSVKVSCKASGFDFSTYYMSWVRQAPGQGLEWMGTVYVRQGTTYYASWLNGRVTITADESTSTAYMELSSLRSEDTAVYYCARGGYNYDDAFVIWGQGTLVTVSSASTKGPSVFPLAPCSRSTSESTAALGCLVKDYFPEPVTVSWNSGALTSGVHTFPAVLQSSGLYSLSSVVTVPSSSLGTKTYTCNVDHKPSNTKVDKRVESKYG
heavy 2: EVQLVESGGGLVQPGGSLRLSCAASGFSLDSYGVHWVRQATGKGLEWVSVIWSDGTTTYNSALKSRFTISRENAKNSLYLQMNSLRAGDTAVYYCARDTHYRLYYYAMDYWGQGTTVTVSSASTKGPSVFPLAPCSRSTSESTAALGCLVEDYFPEPVTVSWNSGALTSGVHTFPAVLQSSGLYSLSSVVTVPSSSLGTKTYTCNVDHKPSNTKVDERVESKYGPPCPPCPAPEFEGGPSVFLFPPKPKDTLMISRTPEVTCVVVDVSQEDPEVQFNWYVDGVEVHNAKTKPREEQFNSTYRVVSVLTVLHQDWLNGKEYKCKVSNKGLPSSIEKTISKAKGQPREPQVCTLPPSQEEMTKNQVSLSCAVKGFYPSDIAVEWESNGQPENNYKTTPPVLDSDGSFFLVSRLTVDKSRWQEGNVFSCSVMHEALHNHYTQKSLSLSL
light 2: DIVMTQSPLSLPVTPGEPASISCRSSQSLVHSNGDTYFHWYLQKPGQSPQLLIYKVSNRFSGVPDRFSGSGSGTDFTLKISRVEAEDVGVYYCSQTTHAPFTFGQGTKLEIKRTVAAPSVFIFPPSDKKLKSGTASVVCLLNNFYPREAKVQWKVDNALQSGNSQESVTEQDSKDSTYSLSSTLTLSKADYEKHKVYACEVTHQGLSSPVTKSFNRGEC
binding: binds

B3: TweakIL17_0128 (bispecific antibody, human IgG4 S228P, kappa)
heavy 1: DIQMTQSPSSVSASVGDRVTITCQASQNIYSNLAWYQEKPGKAPKLLIYTASYLASGVPSRFSGSGSGTDYTLTISSLQPEDFATYYCQTAYYNSRPDTVAFGGGTKVEIKRTVAAPSVFIFPPSDEELKSGTASVVCLLNNFYPREAKVQWKVDNALQSGNSQESVTEQDSKDSTYSLSSTLTLSKADYEKHKVYACEVTHQGLSSPVTKSFNRGECPPCPPCPAPEFEGGPSVFLFPPKPKDTLMISRTPEVTCVVVDVSQEDPEVQFNWYVDGVEVHNAKTKPREEQFNSTYRVVSVLTVLHQDWLNGKEYKCKVSNKGLPSSIEKTISKAKGQPREPQVYTLPPCQEEMTKNQVSLWCLVKGFYPSDIAVEWESNGQPENNYKTTPPVLDSDGSFFLYSRLTVDKSRWQEGNVFSCSVMHEALHNHYTQKSLSLSL
light 1: QVQLVQSGAEVKKPGSSVKVSCKASGFDFSTYYMSWVRKAPGQGLEWMGTVYVRQGTTYYASWLNGRVTITADESTSTAYMELSSLRSEDTAVYYCARGGYNYDDAFVIWGQGTLVTVSSASTKGPSVFPLAPCSRSTSESTAALGCLVKDYFPEPVTVSWNSGALTSGVHTFPAVLQSSGLYSLSSVVTVPSSSLGTKTYTCNVDHKPSNTKVDKRVESKYG
heavy 2: EVQLVESGGGLVQPGGSLRLSCAASGFSLDSYGVHWVREATGKGLEWVSVIWSDGTTTYNSALKSRFTISRENAKNSLYLQMNSLRAGDTAVYYCARDTHYRLYYYAMDYWGQGTTVTVSSASTKGPSVFPLAPCSRSTSESTAALGCLVEDYFPEPVTVSWNSGALTSGVHTFPAVLQSSGLYSLSSVVTVPSSSLGTKTYTCNVDHKPSNTKVDERVESKYGPPCPPCPAPEFEGGPSVFLFPPKPKDTLMISRTPEVTCVVVDVSQEDPEVQFNWYVDGVEVHNAKTKPREEQFNSTYRVVSVLTVLHQDWLNGKEYKCKVSNKGLPSSIEKTISKAKGQPREPQVCTLPPSQEEMTKNQVSLSCAVKGFYPSDIAVEWESNGQPENNYKTTPPVLDSDGSFFLVSRLTVDKSRWQEGNVFSCSVMHEALHNHYTQKSLSLSL
light 2: DIVMTQSPLSLPVTPGEPASISCRSSQSLVHSNGDTYFHWYLKKPGQSPQLLIYKVSNRFSGVPDRFSGSGSGTDFTLKISRVEAEDVGVYYCSQTTHAPFTFGQGTKLEIKRTVAAPSVFIFPPSDKKLKSGTASVVCLLNNFYPREAKVQWKVDNALQSGNSQESVTEQDSKDSTYSLSSTLTLSKADYEKHKVYACEVTHQGLSSPVTKSFNRGEC
binding: binds
